Laboratory results as given in the supplement of paper PMC10849652.
The list shows a part of the results.

Chains of the proteins cited; added tags and fusions are not shown. Lines headed by an entry give the natural chain unless they say otherwise; changes in a name come on top.
UniProt Q3T8J9: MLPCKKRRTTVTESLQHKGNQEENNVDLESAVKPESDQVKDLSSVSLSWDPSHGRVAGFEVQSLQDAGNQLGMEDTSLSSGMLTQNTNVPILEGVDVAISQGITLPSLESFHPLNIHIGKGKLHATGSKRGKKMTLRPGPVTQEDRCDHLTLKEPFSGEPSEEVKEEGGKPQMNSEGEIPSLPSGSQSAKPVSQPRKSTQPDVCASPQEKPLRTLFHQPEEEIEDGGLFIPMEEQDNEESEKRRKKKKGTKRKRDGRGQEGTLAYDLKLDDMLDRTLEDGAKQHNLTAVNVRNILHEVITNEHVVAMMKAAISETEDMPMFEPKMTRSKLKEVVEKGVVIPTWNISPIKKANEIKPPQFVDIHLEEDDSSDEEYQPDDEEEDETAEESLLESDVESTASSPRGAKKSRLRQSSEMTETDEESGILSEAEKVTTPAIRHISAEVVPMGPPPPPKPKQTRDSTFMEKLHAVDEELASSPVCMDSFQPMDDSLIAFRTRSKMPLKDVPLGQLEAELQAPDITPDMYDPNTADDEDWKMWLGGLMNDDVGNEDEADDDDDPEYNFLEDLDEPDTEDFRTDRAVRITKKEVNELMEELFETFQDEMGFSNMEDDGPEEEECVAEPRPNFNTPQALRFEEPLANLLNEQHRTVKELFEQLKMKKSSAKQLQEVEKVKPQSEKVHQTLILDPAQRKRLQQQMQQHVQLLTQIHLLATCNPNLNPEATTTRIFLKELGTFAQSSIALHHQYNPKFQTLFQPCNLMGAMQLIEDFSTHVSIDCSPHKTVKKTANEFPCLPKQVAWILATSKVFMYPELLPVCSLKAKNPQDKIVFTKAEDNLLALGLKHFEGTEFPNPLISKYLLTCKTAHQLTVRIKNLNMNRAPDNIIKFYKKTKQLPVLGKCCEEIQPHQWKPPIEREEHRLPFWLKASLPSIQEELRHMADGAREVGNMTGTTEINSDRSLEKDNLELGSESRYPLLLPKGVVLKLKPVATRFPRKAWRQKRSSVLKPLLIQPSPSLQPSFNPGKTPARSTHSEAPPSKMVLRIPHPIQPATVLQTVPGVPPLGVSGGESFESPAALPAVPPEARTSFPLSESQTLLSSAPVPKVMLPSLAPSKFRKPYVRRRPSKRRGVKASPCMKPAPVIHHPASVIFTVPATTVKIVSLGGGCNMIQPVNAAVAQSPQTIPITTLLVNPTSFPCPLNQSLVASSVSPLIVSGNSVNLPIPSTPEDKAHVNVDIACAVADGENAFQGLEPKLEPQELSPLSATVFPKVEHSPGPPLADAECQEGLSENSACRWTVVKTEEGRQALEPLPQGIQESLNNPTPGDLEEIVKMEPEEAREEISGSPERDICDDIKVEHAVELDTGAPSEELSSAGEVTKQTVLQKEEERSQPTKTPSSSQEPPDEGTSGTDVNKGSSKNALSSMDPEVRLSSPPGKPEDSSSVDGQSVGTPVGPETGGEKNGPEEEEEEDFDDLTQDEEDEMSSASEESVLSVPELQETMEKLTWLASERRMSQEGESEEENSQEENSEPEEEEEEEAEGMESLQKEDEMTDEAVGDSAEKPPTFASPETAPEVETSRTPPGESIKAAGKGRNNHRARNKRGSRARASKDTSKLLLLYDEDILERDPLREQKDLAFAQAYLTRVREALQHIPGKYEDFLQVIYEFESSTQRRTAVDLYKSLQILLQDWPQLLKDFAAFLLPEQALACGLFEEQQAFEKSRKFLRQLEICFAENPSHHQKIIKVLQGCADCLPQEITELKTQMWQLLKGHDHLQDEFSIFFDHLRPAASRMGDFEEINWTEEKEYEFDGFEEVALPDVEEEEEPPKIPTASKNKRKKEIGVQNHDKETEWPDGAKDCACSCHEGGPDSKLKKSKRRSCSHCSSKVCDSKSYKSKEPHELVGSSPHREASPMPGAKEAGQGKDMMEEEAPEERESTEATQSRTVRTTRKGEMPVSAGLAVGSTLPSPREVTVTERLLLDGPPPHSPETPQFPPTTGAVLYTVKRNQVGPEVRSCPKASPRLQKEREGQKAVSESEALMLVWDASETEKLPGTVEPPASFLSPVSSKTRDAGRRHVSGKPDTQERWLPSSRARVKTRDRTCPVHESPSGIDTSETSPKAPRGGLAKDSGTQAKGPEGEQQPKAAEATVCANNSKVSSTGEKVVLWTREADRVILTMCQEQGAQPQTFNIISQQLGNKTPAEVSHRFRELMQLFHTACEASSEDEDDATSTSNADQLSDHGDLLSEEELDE
UniProt P38435: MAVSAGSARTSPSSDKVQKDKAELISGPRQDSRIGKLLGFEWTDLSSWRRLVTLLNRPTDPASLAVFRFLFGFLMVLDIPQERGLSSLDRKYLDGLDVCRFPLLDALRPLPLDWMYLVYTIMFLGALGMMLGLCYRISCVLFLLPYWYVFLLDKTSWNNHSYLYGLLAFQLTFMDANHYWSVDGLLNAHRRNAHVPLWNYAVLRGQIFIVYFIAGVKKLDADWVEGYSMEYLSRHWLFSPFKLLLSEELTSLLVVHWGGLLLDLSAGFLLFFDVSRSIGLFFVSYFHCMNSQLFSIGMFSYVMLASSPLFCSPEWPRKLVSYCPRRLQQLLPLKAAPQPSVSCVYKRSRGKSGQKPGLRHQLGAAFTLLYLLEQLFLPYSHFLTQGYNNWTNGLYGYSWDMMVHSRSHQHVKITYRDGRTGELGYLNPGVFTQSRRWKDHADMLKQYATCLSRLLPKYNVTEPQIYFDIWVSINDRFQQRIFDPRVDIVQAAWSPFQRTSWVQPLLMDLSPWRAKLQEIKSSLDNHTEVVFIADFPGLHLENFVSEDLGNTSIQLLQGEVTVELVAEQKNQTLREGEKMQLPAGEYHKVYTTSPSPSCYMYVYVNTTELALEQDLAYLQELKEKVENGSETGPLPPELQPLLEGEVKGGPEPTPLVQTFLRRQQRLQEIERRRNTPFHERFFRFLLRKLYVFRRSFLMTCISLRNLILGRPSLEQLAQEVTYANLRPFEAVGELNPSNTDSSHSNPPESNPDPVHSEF
UniProt Q53EU6: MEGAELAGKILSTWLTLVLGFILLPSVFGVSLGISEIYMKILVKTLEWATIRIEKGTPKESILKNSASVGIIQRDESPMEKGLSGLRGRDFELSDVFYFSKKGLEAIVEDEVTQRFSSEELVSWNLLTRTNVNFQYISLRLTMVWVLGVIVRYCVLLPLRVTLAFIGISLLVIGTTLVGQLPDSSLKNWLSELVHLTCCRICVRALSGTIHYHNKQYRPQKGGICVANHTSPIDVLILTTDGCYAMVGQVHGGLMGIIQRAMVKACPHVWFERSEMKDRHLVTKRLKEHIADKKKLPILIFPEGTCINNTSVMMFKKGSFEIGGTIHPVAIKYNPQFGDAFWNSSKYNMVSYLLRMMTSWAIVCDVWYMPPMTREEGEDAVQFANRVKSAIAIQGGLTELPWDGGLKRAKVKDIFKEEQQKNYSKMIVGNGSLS
UniProt Q9Y248: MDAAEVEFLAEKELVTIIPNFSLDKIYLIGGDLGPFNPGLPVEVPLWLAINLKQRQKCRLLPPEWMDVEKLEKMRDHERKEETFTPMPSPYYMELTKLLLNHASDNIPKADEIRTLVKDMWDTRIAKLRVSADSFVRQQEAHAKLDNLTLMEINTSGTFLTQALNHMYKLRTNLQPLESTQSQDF
UniProt P08754, whole entry, looked up: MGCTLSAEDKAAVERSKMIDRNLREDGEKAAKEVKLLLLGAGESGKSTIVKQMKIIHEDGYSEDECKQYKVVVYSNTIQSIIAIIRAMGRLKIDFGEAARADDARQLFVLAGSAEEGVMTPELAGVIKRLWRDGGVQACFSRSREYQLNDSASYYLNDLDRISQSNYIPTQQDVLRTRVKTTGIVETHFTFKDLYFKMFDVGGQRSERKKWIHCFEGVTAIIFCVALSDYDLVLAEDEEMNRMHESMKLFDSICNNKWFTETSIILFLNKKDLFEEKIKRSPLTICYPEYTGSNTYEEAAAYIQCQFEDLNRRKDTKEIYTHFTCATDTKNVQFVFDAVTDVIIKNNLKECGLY
UniProt Q9UHW5, whole entry, looked up: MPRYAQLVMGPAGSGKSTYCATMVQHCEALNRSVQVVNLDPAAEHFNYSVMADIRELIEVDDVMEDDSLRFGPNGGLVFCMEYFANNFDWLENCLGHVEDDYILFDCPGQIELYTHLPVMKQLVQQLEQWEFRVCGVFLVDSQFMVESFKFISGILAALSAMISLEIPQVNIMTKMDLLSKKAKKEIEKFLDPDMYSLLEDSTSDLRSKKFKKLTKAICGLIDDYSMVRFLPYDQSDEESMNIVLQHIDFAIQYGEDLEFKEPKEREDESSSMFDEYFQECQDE
UniProt Q9BRX5: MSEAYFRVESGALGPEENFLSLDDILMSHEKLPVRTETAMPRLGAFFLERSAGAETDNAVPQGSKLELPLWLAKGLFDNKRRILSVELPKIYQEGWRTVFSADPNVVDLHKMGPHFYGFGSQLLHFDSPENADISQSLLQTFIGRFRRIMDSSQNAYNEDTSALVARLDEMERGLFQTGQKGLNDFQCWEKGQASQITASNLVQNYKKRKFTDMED
UniProt P62879, whole entry, looked up: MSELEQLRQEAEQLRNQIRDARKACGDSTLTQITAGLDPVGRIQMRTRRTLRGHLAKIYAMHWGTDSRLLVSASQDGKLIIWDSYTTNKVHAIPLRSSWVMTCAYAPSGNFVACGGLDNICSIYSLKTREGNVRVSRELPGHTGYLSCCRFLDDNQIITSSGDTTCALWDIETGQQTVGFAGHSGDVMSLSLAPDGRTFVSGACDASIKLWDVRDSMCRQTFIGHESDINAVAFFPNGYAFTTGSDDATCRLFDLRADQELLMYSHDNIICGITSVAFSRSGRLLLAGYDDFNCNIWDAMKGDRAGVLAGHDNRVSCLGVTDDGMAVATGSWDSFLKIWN
UniProt Q9NZD2: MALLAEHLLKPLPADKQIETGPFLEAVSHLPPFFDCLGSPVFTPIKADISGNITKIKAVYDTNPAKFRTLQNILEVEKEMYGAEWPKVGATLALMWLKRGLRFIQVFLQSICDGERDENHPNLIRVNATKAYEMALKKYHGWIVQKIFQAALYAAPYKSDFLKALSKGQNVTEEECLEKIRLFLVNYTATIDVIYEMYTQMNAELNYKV
UniProt P00505: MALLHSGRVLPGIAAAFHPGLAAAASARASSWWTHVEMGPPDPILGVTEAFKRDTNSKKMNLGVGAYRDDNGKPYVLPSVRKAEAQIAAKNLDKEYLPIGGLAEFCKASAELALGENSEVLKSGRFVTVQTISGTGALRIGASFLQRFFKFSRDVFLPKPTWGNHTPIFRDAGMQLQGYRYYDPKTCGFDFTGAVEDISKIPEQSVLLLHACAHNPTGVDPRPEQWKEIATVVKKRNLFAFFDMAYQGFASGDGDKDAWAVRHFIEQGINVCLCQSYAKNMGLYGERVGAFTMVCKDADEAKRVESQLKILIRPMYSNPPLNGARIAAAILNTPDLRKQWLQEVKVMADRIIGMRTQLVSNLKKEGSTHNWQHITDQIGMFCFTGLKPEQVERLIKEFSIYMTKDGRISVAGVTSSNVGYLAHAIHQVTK
UniProt Q49A26: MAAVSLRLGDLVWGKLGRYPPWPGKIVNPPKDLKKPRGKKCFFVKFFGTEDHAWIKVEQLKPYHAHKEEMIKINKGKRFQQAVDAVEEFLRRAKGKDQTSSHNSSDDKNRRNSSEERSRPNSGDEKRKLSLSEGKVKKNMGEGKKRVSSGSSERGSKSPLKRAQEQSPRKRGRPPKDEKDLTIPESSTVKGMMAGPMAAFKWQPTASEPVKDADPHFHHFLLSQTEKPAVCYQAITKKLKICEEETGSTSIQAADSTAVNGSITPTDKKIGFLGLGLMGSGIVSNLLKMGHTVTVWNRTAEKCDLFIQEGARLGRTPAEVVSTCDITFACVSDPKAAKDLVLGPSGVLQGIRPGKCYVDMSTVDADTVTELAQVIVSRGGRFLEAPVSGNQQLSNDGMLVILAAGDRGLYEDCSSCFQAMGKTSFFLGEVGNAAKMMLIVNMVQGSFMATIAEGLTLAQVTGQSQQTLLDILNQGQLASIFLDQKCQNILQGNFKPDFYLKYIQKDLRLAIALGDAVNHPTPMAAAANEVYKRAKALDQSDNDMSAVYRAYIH
UniProt P36959: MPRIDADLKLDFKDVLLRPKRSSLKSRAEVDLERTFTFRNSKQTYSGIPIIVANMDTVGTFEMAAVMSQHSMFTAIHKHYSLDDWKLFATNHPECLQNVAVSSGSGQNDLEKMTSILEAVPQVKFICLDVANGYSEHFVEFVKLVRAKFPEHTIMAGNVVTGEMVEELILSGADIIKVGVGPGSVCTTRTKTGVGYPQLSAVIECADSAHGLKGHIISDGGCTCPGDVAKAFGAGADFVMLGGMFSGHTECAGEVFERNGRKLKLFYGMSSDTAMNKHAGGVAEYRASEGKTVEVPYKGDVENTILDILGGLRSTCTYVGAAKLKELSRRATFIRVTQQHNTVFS
UniProt Q9NWU2, whole entry, looked up: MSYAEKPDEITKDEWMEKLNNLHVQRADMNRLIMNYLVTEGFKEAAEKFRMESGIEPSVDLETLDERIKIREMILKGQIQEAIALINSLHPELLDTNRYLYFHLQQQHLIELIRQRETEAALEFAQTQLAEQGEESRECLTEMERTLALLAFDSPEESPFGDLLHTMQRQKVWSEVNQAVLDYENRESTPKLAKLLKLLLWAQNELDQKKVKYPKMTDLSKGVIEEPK

What was measured:
Test in all cases: log2 fold change, soluble protein after heating vs DMSO (PISA); higher = thermal stabilisation; K562 lysate, 10 uM; active = over 0.2 and 3.5 SD of the protein, either way, in both replicates (recomputed)
[1] = compound: C1=CC=C(C=C1)[C@H](COC2=CC3=C(C=C2)NC(=O)N3)NC(=O)C4=CC=CN(C4=O)CC5=CC(=C(C=C5)F)F
Summary of the method: (§1)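 K562 pellets were dounce-homogenised in PBS pH 7.4 containing 1 mM MgCl2, and the crude extract, at 1 mg/mL protein, was exposed to 10 μM compound for 30 min. Aliquots were heated for 3 min across 48°C-58°C, pooled, brought to 0.5% NP-40 at 4°C and spun at 21,000xg for 90 min, with the supernatant taken as soluble protein. TMTpro 16plex LC-MS/MS with equalised channel sums quantified that protein. Values are log-two fold changes in thermal stability relative to solvent controls, taken from duplicates.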

[2] = compound: CC1=C(SC2=C1C(=N[C@H](C3=NN=C(N32)C)CC(=O)N)C4=CC=C(C=C4)Cl)C
Summary of the method: as §1

[3] = compound: CC1=C2C(=CC=C1)N=C(N(C2=O)C3=CC=CC=C3C)CN4C=NC5=C(N=CN=C54)N
Summary of the method: as §1

[4] = compound: Cc1sc2c(c1C)C(c1ccc(Cl)cc1)=N[C@@H](CC(=O)OC(C)(C)C)c1nnc(C)n1-2
Summary of the method: as §1

[5] = compound: c1ccc([C@@H]2C[C@H]2NC2CCNCC2)cc1
Summary of the method: as §1

Target | log2 fold change [1] | log2 fold change [2] | log2 fold change [3] | log2 fold change [4] | log2 fold change [5]
GON4L (UniProt Q3T8J9) | inactive: 0.027 | inactive: 0 | inactive: 0.008 | inactive: 0.003 | active: 0.466
GNE isoform 2 (UniProt Q9Y223) | inactive: -0.072 | inactive: 0.006 | inactive: 0.023 | inactive: 0.007 | inactive: 0.06
GGCX (UniProt P38435) | inactive: -0.169 | inactive: -0.027 | inactive: -0.038 | inactive: 0 | inactive: 0.142
GPAT3 (UniProt Q53EU6) | inactive: 0.027 | inactive: 0.05 | inactive: 0.037 | inactive: -0.013 | inactive: -0.034
GMDS (UniProt O60547) | inactive: -0.003 | inactive: -0.014 | inactive: 0.042 | inactive: 0.033 | inactive: 0.005
GINS2 (UniProt Q9Y248) | inactive: -0.016 | inactive: -0.006 | inactive: -0.025 | inactive: -0.004 | inactive: -0.012
GOLGA1 (UniProt Q92805) | inactive: -0.042 | inactive: 0.045 | inactive: 0.026 | inactive: -0.057 | inactive: 0.009
GNAI3 (UniProt P08754) | inactive: -0.014 | inactive: -0.005 | inactive: -0.023 | inactive: -0.036 | inactive: 0.024
GNL2 (UniProt Q13823) | inactive: -0.009 | inactive: 0.004 | inactive: 0.015 | inactive: -0.008 | inactive: 0.036
GPN3 isoform 2 (UniProt Q9UHW5) | inactive: 0.002 | inactive: -0.01 | inactive: 0.058 | inactive: -0.041 | inactive: -0.025
GINS3 (UniProt Q9BRX5) | inactive: -0.033 | inactive: -0.051 | inactive: 0.035 | inactive: 0.029 | inactive: 0.001
GGT7 (UniProt Q9UJ14) | inactive: -0.138 | inactive: 0.017 | inactive: 0.103 | inactive: -0.015 | inactive: -0.048
GPAA1 (UniProt O43292) | inactive: -0.055 | inactive: 0.022 | inactive: 0.004 | inactive: -0.045 | inactive: -0.004
GPATCH1 (UniProt Q9BRR8) | inactive: 0.052 | inactive: -0.034 | inactive: 0.005 | inactive: 0.055 | inactive: 0.178
GLG1 isoform 2 (UniProt Q92896) | inactive: 0.004 | inactive: -0.004 | inactive: -0.004 | inactive: -0.027 | inactive: -0.033
GNB2 (UniProt P62879) | inactive: -0.009 | inactive: -0.006 | inactive: 0.033 | inactive: 0.023 | inactive: -0.039
GMFB (UniProt P60983) | inactive: -0.023 | inactive: 0.01 | inactive: -0.026 | inactive: 0 | inactive: 0.028
GPD2 (UniProt P43304) | inactive: 0.031 | inactive: 0.009 | inactive: 0.014 | inactive: -0.009 | inactive: 0.003
GLA (UniProt P06280) | inactive: 0.03 | inactive: 0.024 | inactive: -0.031 | inactive: -0.021 | inactive: 0.06
GLTP (UniProt Q9NZD2) | inactive: -0.142 | inactive: 0.005 | inactive: 0.014 | inactive: 0.061 | inactive: 0.089
GNAS (UniProt Q5JWF2) | inactive: -0.003 | inactive: 0.039 | inactive: 0.025 | inactive: 0.003 | inactive: 0.086
GOT2 (UniProt P00505) | inactive: 0.047 | inactive: 0.017 | inactive: -0.023 | inactive: 0.023 | inactive: 0.006
GLYR1 (UniProt Q49A26) | inactive: -0.179 | inactive: 0.066 | inactive: -0.128 | inactive: 0.142 | inactive: 0.043
GLCCI1 (UniProt Q86VQ1) | inactive: -0.008 | inactive: 0.035 | inactive: -0.041 | inactive: 0.032 | inactive: 0
GMPR (UniProt P36959) | inactive: -0.02 | inactive: 0.015 | inactive: 0.006 | inactive: -0.046 | inactive: 0.023
GIGYF1 (UniProt O75420) | inactive: -0.056 | inactive: 0.057 | inactive: -0.067 | inactive: -0.012 | inactive: -0.079
GID8 (UniProt Q9NWU2) | inactive: 0.001 | inactive: -0.029 | inactive: -0.061 | inactive: -0.037 | inactive: 0.029
GHDC (UniProt Q8N2G8) | inactive: 0.026 | inactive: 0.015 | inactive: 0.063 | inactive: -0.079 | inactive: 0.016

Individual results from the results shown:
GLG1 isoform 2 (UniProt Q92896) – log2 fold change [5]: inactive: -0.033
GMPR (UniProt P36959) – log2 fold change [2]: inactive: 0.015
